From paper PMC8417012
Results are given in words; binding and its absence hold for the method and conditions named. Some results given as binding are weak or reduced against the parent protein; the word gives no strength. Where a sequence is shown, tags or fusion partners need not be part of it.

By UniProt entry, the sequences of proteins in these tests, tags left out.
UniProt Q42575: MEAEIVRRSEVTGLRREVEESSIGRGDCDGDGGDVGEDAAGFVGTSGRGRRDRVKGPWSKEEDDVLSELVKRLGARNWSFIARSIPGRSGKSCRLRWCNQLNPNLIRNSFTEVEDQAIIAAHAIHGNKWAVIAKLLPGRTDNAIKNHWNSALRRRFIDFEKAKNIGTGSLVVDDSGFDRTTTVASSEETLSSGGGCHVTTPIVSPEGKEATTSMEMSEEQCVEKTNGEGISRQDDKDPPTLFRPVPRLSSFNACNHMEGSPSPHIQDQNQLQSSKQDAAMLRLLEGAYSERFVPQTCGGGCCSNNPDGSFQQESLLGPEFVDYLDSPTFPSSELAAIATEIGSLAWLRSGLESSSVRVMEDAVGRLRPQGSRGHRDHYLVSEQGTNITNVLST
UniProt O04192: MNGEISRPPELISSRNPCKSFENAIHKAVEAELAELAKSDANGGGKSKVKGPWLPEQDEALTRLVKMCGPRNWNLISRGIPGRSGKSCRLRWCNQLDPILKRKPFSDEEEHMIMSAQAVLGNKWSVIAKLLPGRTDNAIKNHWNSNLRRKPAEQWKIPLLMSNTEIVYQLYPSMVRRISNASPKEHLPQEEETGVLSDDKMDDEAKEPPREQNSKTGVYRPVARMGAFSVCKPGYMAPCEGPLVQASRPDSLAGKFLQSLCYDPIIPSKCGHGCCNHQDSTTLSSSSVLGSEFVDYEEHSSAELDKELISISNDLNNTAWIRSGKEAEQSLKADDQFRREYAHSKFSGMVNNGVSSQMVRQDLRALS

Assays:
Assay in all cases: two-hybrid; yeast; bait vector pBTM112-D9, prey plasmid pACT2; growth on SDIV medium without uracil and His; spots photographed 1 week after plating; which partner was bait is not stated
[1] = biological target: T1, BPM3 (yeast two-hybrid fusion) (Arabidopsis thaliana) (UniProt O22286)
T1 sequence: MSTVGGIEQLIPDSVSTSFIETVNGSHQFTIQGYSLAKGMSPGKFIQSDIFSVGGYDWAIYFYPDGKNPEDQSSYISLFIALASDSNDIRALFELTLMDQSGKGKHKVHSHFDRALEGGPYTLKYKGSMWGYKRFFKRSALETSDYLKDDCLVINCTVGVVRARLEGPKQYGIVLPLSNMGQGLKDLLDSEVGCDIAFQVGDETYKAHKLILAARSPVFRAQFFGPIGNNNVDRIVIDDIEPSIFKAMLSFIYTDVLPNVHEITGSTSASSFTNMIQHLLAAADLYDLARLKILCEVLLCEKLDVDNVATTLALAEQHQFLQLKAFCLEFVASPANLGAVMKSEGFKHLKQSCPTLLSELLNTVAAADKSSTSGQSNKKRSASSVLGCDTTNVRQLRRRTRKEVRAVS

[2] = biological target: T2, BPM1 (yeast two-hybrid fusion) (Arabidopsis thaliana) (UniProt Q8L765)
T2 sequence: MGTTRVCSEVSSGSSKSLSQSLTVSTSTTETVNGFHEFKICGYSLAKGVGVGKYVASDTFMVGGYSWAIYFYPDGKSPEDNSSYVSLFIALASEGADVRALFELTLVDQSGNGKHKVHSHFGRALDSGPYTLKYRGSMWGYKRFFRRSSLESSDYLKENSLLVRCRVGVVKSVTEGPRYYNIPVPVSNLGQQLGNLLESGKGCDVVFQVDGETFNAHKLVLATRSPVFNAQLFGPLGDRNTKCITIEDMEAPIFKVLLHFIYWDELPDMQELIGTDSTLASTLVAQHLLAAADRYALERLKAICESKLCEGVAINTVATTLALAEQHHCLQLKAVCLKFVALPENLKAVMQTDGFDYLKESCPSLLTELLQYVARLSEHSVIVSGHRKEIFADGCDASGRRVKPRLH

[3] = biological target: T3, BPM5 (yeast two-hybrid fusion) (Arabidopsis thaliana) (UniProt Q1EBV6)
T3 sequence: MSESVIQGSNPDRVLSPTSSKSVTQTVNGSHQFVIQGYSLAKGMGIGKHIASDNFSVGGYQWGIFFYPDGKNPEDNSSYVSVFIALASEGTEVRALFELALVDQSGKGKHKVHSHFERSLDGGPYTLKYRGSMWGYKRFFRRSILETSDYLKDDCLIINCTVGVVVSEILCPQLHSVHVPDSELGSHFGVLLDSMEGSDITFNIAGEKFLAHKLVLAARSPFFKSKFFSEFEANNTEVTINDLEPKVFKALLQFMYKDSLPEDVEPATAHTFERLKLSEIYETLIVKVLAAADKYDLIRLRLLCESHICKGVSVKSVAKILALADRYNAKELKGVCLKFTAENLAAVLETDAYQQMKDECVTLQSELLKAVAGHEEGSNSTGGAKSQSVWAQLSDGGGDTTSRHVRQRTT

[4] = biological target: T4, BPM2 (yeast two-hybrid fusion) (Arabidopsis thaliana) (UniProt Q9M8J9)
T4 sequence: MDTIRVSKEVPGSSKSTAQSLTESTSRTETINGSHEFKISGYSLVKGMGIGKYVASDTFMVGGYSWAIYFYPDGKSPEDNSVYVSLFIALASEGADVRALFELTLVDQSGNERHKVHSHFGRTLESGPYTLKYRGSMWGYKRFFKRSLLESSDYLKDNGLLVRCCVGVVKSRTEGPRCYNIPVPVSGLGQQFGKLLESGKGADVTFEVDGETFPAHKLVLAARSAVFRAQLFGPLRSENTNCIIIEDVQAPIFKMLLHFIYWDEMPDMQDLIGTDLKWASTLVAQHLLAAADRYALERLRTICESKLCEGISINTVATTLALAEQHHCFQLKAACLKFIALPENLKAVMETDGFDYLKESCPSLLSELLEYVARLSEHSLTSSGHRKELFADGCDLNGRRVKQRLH

[5] = biological target: T5, BPM6 (yeast two-hybrid fusion) (Arabidopsis thaliana) (UniProt A1L4W5)
T5 sequence: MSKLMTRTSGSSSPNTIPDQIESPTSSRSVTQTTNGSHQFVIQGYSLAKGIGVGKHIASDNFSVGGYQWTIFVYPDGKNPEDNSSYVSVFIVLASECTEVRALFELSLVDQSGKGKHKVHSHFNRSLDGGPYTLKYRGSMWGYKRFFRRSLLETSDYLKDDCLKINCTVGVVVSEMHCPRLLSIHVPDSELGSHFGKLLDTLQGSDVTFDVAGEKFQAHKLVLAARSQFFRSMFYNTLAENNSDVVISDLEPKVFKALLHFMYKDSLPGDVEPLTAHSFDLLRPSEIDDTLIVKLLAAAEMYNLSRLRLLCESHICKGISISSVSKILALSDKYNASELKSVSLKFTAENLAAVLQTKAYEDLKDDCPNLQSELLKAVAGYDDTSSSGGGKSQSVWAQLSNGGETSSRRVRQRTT

[6] = biological target: T6, BPM4 (yeast two-hybrid fusion) (Arabidopsis thaliana) (UniProt Q9SRV1)
T6 sequence: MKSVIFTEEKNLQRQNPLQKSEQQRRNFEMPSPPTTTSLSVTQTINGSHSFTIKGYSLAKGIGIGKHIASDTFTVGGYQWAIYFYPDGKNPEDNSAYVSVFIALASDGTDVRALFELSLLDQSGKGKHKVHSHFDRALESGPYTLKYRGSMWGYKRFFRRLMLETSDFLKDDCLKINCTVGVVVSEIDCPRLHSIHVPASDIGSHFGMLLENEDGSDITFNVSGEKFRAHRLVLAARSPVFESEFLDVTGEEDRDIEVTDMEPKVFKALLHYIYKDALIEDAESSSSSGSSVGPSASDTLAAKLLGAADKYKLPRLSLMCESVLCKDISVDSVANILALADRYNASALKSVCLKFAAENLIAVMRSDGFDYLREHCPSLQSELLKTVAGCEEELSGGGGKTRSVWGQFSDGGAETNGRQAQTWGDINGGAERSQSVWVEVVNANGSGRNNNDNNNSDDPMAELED

Row | binding [1] | binding [2] | binding [3] | binding [4] | binding [5] | binding [6] | Substance
1 | binds | binds | binds | binds | binds | binds | MYB1 (yeast two-hybrid fusion) (from UniProt Q42575 1-393)
2 | binds | binds | binds | binds | binds | binds | MYB25 (yeast two-hybrid fusion) (from UniProt O04192 1-367)
